Article PMC13257416
Results are given in words; binding and its absence hold for the method and conditions named. Binding seen in cells or lysates may run through a third protein. Some entries that bind do so weakly or less than the wild type. For some of these results: Tags and fused reporters may be left off the sequences shown.

Amino acid sequences for entries named in this document (tags omitted).
UniProt P51149: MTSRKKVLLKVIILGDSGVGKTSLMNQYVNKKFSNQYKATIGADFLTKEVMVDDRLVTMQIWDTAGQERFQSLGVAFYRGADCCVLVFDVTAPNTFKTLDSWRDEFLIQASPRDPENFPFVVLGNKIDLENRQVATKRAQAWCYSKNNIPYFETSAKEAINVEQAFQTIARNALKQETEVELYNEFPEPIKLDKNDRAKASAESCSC

T1: GST-AnxA6 fusion protein (UniProt P08133)
T1 sequence: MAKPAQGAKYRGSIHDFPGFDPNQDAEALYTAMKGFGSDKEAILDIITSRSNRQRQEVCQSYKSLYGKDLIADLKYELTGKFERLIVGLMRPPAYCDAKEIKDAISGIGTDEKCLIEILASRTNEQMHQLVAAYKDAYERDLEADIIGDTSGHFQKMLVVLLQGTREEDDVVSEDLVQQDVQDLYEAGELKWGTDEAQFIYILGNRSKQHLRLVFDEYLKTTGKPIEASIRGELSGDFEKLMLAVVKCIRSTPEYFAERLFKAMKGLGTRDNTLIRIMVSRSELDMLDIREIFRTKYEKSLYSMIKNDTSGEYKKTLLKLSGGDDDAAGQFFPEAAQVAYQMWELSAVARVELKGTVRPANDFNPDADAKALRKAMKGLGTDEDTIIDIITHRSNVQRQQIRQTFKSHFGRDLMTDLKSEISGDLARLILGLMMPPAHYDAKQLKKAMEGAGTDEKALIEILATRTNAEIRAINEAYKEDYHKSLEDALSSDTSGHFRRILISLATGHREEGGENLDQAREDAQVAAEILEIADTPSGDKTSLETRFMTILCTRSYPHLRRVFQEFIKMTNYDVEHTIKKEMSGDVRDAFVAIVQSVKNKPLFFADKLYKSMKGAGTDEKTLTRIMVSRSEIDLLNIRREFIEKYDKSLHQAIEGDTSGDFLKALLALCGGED

T2: Annexin A6 (human (endogenous in TNBC cell lines)) (UniProt P08133)
T2 sequence: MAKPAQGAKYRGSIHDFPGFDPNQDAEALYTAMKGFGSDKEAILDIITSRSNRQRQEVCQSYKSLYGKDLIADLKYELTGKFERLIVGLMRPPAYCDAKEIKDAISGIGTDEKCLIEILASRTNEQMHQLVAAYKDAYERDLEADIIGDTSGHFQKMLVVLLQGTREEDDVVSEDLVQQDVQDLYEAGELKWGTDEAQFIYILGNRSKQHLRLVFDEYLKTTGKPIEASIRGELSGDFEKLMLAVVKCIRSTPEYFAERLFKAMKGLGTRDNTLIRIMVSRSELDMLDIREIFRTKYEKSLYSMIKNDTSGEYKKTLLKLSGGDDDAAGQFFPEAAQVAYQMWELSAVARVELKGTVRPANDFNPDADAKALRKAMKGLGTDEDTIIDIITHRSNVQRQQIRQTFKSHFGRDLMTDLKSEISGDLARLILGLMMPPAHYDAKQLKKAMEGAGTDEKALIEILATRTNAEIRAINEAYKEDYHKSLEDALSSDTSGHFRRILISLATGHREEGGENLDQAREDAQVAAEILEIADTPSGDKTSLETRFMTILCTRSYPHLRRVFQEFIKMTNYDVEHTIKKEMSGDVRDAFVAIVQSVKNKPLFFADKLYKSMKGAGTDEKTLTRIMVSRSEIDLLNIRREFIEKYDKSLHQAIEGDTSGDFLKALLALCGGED

T3: Flag-tagged Annexin A6 (UniProt P08133)
T3 sequence: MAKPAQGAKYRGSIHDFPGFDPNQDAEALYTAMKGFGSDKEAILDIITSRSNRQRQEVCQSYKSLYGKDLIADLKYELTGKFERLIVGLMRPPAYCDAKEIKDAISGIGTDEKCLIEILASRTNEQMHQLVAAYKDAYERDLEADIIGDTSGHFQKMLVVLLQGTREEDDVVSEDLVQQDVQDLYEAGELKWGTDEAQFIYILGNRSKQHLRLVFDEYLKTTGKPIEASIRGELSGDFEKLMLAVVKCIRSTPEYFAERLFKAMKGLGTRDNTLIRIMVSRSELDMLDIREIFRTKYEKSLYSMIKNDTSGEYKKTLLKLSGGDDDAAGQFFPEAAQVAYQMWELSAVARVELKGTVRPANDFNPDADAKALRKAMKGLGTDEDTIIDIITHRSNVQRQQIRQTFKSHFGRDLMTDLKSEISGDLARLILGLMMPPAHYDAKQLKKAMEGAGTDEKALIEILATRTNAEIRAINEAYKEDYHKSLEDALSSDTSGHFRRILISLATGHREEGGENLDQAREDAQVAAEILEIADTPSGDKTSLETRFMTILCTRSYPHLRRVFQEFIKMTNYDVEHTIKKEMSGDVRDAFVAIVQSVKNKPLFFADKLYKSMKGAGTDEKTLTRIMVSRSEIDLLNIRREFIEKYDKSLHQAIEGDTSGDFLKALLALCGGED


How the values were obtained:
[1] = target: T1, GST-AnxA6 fusion protein; assay: pull-down; 2 µg of GST-AnxA6 immobilized to glutathione beads, incubated with 500 µg of whole cell extract from MDA-468 cells in lysis buffer with or without 1 mM Ca2+; Western blotting; only the target purified
[2] = target: T2, Annexin A6 (human (endogenous in TNBC cell lines)); assay: proximity ligation; Duolink In Situ Red kit, mouse anti-AnxA6 and rabbit anti-SNAP23 EPR8538 on cells in chamber slides; confocal microscopy; cell line not stated
[3] = target: T3, Flag-tagged Annexin A6; assay: co-IP; anti-AnxA6 antibody on lysates (RIPA buffer) of empty vector and Flag-AnxA6 transfected MDA-468 cells; with or without the crosslinker DSP; Western blotting
[4] = target: T3, Flag-tagged Annexin A6; assay: co-IP; anti-Flag-M2 antibody on whole cell lysates (RIPA buffer) of MDA-468 cells expressing Flag-tagged AnxA6; cells treated with or without the crosslinker DSP; Western blotting

Row | binding [1] | binding [2] | binding [3] | binding [4] | Molecule
1 | binds |  |  |  | EGFR (from UniProt P00533 25-1210) (receptor)
2 | binds |  |  |  | Rab7 (from UniProt P51149 1-207)
3 | binds | binds | binds | binds | SNAP23 (protein, UniProt O00161 1-211) MDNLSSEEIQQRAHQITDESLESTRRILGLAIESQDAGIKTITMLDEQKEQLNRIEEGLDQINKDMRETEKTLTELNKCCGLCVCPCNRTKNFESGKAYKTTWGDGGENSPCNVVSKQPGPVTNGQLQQPTTGAASGGYIKRITNDAREDEMEENLTQVGSILGNLKDMALNIGNEIDAQNPQIKRITDKADTNRDRIDIANARAKKLIDS
4 | binds |  |  |  | flotillin (protein, UniProt O75955 1-427) MFFTCGPNEAMVVSGFCRSPPVMVAGGRVFVLPCIQQIQRISLNTLTLNVKSEKVYTRHGVPISVTGIAQVKIQGQNKEMLAAACQMFLGKTEAEIAHIALETLEGHQRAIMAHMTVEEIYKDRQKFSEQVFKVASSDLVNMGISVVSYTLKDIHDDQDYLHSLGKARTAQVQKDARIGEAEAKRDAGIREAKAKQEKVSAQYLSEIEMAKAQRDYELKKAAYDIEVNTRRAQADLAYQLQVAKTKQQIEEQRVQVQVVERAQQVAVQEQEIARREKELEARVRKPAEAERYKLERLAEAEKSQLIMQAEAEAASVRMRGEAEAFAIGARARAEAEQMAKKAEAFQLYQEAAQLDMLLEKLPQVAEEISGPLTSANKITLVSSGSGTMGAAKVTGEVLDILTRLPESVERLTGVSISQVNHKPLRTA
